Test results published in the supplement of paper PMC12823440, “Inhibitors supercharge kinase turnover through native proteolytic circuits” (Nature, 2025).
This is one part of the list. Hit calls seldom repeat between salt and free forms of one compound.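 In K562 cells expressing nanoluciferase-fused kinases, luminescence was recorded at 4 h intervals between 2 and 18 h, normalized as percent of control with DMSO at 100% and a positive control at 0%. A significant (2 sigma) signal drop marks a time point as decreased. The authors' rule for a hit is not shown and takes in more than the number of time points.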

Chains of the proteins cited; added tags and fusions are not shown. Lines headed by an entry give the natural chain unless they say otherwise; changes in a name come on top.
UniProt O15530: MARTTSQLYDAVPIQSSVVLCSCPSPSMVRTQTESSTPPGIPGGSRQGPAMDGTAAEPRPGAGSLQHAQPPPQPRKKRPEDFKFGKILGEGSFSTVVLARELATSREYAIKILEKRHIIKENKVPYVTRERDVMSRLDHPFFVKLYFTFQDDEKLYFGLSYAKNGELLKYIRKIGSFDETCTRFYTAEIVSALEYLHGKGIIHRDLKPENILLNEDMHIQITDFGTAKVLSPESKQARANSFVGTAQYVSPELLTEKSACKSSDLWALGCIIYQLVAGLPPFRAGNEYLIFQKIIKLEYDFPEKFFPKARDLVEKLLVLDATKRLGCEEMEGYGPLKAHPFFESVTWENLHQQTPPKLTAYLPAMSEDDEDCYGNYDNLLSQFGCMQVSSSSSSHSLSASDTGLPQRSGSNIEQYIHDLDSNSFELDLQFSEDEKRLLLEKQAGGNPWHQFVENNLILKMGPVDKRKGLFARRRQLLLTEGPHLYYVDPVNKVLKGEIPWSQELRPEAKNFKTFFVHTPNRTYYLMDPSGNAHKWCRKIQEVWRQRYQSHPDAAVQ
UniProt P42356, whole entry, looked up: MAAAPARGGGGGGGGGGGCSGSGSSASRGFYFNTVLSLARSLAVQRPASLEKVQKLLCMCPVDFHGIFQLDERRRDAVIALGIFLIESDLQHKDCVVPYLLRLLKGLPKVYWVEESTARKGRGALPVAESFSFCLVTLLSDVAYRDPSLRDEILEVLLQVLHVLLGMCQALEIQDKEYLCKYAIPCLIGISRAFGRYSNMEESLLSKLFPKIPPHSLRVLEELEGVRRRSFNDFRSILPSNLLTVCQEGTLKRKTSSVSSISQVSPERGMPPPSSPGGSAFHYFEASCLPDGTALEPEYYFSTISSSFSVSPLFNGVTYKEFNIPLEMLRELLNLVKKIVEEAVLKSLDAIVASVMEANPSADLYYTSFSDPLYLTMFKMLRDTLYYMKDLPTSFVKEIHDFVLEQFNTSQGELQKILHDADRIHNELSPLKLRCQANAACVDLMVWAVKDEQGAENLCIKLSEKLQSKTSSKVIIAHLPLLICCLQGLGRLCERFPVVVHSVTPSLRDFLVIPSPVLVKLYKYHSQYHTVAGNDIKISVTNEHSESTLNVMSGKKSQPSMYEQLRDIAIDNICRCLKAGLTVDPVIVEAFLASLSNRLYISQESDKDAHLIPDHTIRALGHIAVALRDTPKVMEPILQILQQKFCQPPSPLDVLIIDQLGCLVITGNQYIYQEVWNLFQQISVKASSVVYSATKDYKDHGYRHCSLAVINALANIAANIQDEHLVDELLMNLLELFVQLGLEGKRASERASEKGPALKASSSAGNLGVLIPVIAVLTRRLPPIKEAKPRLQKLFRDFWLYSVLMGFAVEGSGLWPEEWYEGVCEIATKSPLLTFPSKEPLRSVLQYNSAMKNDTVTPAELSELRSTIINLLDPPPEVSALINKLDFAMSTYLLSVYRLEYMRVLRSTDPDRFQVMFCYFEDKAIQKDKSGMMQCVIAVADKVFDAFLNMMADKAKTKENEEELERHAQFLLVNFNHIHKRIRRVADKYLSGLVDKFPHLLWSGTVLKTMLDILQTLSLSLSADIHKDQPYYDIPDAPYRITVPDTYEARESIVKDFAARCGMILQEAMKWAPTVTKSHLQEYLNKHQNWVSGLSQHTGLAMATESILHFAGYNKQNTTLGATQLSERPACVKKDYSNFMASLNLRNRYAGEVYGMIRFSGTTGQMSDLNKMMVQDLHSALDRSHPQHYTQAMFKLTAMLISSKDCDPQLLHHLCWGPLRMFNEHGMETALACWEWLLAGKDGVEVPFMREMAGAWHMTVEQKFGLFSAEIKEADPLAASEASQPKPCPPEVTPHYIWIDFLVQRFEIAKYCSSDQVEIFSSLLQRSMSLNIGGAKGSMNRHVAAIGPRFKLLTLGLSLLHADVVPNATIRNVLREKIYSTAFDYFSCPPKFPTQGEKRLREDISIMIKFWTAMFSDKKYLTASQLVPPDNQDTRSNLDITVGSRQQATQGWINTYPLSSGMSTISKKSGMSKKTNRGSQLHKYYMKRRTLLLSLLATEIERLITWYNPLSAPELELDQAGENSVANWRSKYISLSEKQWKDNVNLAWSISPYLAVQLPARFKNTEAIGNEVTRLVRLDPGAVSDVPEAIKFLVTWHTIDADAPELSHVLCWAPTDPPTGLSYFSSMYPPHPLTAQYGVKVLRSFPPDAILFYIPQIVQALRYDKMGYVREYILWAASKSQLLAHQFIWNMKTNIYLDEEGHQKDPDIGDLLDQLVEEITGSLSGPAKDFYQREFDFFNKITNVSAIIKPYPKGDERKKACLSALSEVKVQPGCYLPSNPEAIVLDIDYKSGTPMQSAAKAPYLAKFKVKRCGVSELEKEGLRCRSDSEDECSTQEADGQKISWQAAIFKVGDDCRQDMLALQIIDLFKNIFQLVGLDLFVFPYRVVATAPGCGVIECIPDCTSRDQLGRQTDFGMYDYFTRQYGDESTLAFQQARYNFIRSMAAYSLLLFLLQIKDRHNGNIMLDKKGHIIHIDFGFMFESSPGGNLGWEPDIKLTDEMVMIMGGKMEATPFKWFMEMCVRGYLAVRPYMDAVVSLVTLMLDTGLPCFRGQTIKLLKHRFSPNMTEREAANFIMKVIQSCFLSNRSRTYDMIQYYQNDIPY
UniProt Q9UBF8: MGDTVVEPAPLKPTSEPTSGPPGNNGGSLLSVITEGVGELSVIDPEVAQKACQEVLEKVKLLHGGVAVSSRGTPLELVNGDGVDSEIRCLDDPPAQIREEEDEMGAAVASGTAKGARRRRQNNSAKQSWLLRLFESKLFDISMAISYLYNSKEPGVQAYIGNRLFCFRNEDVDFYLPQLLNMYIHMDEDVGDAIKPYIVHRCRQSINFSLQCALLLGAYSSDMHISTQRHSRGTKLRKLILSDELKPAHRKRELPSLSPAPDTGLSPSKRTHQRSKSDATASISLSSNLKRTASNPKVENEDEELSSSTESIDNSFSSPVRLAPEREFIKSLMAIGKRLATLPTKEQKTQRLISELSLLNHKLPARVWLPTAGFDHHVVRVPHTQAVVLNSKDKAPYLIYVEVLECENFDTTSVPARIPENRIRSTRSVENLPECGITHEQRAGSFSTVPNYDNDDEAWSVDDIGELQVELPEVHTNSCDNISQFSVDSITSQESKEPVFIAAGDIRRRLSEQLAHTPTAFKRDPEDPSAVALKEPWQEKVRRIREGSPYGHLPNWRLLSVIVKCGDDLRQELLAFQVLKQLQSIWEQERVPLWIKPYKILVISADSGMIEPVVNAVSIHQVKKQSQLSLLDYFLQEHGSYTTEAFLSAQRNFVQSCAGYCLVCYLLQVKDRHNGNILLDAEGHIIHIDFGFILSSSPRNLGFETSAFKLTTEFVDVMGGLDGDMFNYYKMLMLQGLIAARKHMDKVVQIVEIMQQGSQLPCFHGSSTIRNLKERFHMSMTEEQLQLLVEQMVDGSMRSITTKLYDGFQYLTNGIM
UniProt P53350, whole entry: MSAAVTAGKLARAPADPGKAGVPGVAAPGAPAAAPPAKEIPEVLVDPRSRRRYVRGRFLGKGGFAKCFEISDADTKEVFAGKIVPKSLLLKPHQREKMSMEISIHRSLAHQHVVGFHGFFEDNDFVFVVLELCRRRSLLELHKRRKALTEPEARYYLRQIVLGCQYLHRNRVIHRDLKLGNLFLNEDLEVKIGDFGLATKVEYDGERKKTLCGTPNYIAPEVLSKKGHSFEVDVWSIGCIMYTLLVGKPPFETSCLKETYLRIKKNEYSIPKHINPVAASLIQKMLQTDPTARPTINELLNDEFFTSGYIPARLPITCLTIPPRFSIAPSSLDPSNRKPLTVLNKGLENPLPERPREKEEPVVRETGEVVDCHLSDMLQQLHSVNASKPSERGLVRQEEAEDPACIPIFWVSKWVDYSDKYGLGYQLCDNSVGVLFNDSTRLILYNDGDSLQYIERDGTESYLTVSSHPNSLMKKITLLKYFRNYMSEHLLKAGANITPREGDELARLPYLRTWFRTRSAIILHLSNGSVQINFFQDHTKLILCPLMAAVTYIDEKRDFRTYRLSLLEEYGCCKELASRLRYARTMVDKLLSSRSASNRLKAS
UniProt Q13131: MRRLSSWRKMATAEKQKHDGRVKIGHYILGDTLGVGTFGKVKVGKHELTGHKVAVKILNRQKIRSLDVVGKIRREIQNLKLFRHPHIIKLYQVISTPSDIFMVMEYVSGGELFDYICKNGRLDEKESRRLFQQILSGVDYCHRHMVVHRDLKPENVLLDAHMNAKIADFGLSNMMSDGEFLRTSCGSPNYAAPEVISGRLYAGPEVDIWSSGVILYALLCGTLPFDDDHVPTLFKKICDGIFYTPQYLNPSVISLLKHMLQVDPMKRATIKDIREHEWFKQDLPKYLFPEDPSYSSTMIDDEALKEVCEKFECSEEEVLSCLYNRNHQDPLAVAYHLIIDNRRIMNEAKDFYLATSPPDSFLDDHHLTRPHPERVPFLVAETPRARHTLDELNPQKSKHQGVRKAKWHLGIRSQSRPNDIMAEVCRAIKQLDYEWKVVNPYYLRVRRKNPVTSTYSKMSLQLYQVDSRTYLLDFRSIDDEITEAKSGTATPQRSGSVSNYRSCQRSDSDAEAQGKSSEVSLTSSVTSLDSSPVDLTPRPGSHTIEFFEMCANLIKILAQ
UniProt Q14289, whole entry, looked up: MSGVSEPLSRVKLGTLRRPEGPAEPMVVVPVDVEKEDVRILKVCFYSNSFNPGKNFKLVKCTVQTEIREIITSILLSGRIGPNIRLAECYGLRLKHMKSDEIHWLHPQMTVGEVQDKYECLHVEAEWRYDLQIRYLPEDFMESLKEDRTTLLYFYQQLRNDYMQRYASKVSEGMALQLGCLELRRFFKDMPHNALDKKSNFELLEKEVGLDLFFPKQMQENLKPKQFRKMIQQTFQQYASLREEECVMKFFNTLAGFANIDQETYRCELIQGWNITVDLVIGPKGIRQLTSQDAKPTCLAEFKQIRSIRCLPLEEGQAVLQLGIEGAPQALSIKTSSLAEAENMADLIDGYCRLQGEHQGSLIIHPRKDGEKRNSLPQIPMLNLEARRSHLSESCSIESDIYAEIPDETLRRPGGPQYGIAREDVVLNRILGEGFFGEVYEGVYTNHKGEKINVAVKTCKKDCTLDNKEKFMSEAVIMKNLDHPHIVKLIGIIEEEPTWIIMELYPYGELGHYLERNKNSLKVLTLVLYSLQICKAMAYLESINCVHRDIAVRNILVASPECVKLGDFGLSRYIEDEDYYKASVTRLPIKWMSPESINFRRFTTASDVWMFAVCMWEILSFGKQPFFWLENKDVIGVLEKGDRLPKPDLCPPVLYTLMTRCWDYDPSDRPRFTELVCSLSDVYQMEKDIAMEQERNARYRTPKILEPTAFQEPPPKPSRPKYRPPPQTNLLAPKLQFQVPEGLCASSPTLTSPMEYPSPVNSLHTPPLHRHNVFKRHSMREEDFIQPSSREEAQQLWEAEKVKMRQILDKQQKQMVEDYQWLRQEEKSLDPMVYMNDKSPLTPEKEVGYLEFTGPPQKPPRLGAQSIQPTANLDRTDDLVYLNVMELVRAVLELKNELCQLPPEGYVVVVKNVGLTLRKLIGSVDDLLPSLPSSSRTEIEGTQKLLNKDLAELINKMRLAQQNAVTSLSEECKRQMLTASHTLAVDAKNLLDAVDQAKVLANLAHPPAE

Key:
Test in all cases: kinase-Nluc reporter destabilization hit call (1 = scored as downregulated) (binary); higher = compound decreases kinase abundance
Details in all cases: K562; 2-18 h
[1] = target: PDPK1 (UniProt O15530)
[2] = target: PIK4CA (UniProt P42356)
[3] = target: PIK4CB (UniProt Q9UBF8)
[4] = target: PLK1 (UniProt P53350)
[5] = target: PRKAA1 (UniProt Q13131)
[6] = target: PRKCA (UniProt P17252)
[7] = target: PTK2 (UniProt Q05397)
[8] = target: PTK2B (UniProt Q14289)
[9] = target: RAF1 (UniProt P04049)
[10] = target: RAF1_S257L (clone: RAF1_mut) (UniProt P04049)

Measured: kinase-Nluc reporter destabilization hit call

COc1cc(-c2cc(OP(=O)(O)O)cc(-c3cc(OC)c(OC)c(OC)c3)c2)cc(OC)c1OC [Stafia-1] (10 µM)
inactive: [1] 0 | [2] 0 | [3] 0 | [4] 0 | [5] 0 | [6] 0 | [7] 0 | [8] 0 | [9] 0 | [10] 0

COc1cc(N2CCC(N3CCN(C)CC3)CC2)ccc1Nc1ncc(Cl)c(-c2c[nH]c3ccccc23)n1 (2.5 µM)
inactive: [1] 0 | [2] 0 | [3] 0 | [4] 0 | [5] 0 | [6] 0 | [7] 0 | [8] 0 | [9] 0 | [10] 0

O=c1[nH]ccc2nc(-c3ccc(CN4CCC(c5nc(-c6ccccn6)n[nH]5)CC4)cc3)c(-c3ccccc3)cc12 (10 µM)
inactive: [1] 0 | [2] 0 | [3] 0 | [4] 0 | [5] 0 | [6] 0 | [7] 0 | [8] 0 | [9] 0 | [10] 0

NC(=O)c1cnc(-c2ccc(C3(N)CCC3)cc2)c(-c2ccccc2)c1 (10 µM)
inactive: [1] 0 | [2] 0 | [3] 0 | [4] 0 | [5] 0 | [6] 0 | [7] 0 | [8] 0 | [9] 0 | [10] 0

COc1cc2c(cc1OC)/C(=C/c1ccc(O)cc1)C(=O)N2 (10 µM)
inactive: [1] 0 | [2] 0 | [3] 0 | [4] 0 | [5] 0 | [6] 0 | [7] 0 | [8] 0 | [9] 0 | [10] 0

CC(Sc1nc2c(cnn2-c2cccc(Cl)c2)c(=O)[nH]1)C(N)=O (stereo not given) (10 µM)
inactive: [1] 0 | [2] 0 | [3] 0 | [4] 0 | [5] 0 | [6] 0 | [7] 0 | [8] 0 | [9] 0 | [10] 0

N#Cc1ccc(-c2cnc3ccc(-c4ccc(C(=O)N5CCOCC5)cc4)cn23)cc1 (10 µM)
inactive: [1] 0 | [2] 0 | [3] 0 | [4] 0 | [5] 0 | [6] 0 | [7] 0 | [8] 0 | [9] 0 | [10] 0

Cc1cc(O)c2c(c1)C(=O)c1cccc(O)c1C2=O [Chrysophanol] (2 µM)
inactive: [1] 0 | [2] 0 | [3] 0 | [4] 0 | [5] 0 | [6] 0 | [7] 0 | [8] 0 | [9] 0 | [10] 0

C#Cc1cccc(Nc2ncnc3cc(OC)c(NC(=O)N4C[C@H]5CCN(C)[C@H]5C4)cc23)c1 [Theliatinib] (10 µM)
inactive: [1] 0 | [2] 0 | [3] 0 | [4] 0 | [5] 0 | [6] 0 | [7] 0 | [8] 0 | [9] 0 | [10] 0

NCC1CCC(CNc2nc(NCc3ccccc3OC(F)(F)F)ncc2[N+](=O)[O-])CC1 (stereo not given) [PKC-theta inhibitor] (10 µM)
inactive: [1] 0 | [2] 0 | [3] 0 | [4] 0 | [5] 0 | [6] 0 | [7] 0 | [8] 0 | [9] 0 | [10] 0

COc1ccc(Nc2ncc(C(F)(F)F)c(NC3CC3)n2)cc1OC (10 µM)
inactive: [1] 0 | [2] 0 | [3] 0 | [4] 0 | [5] 0 | [6] 0 | [7] 0 | [8] 0 | [9] 0 | [10] 0

O=C(NCCO)c1cc(C(=O)NCCO)cc(C(=O)NCCO)c1 (10 µM)
inactive: [1] 0 | [2] 0 | [3] 0 | [4] 0 | [5] 0 | [6] 0 | [7] 0 | [8] 0 | [9] 0 | [10] 0

CC(C)=CC[C@@H](O)C1=CC(=O)c2c(O)ccc(O)c2C1=O [Shikonin] (10 µM)
inactive: [1] 0 | [2] 0 | [3] 0 | [4] 0 | [5] 0 | [6] 0 | [7] 0 | [8] 0 | [9] 0 | [10] 0

CCNC(=O)C#Cc1ccc2c(C(=Nc3ccc(CN(C)C)cc3)c3ccccc3)c(O)[nH]c2c1 (2.5 µM)
inactive: [1] 0 | [2] 0 | [3] 0 | [4] 0 | [5] 0 | [6] 0 | [7] 0 | [8] 0 | [9] 0 | [10] 0

O=C(c1cccc(Cl)c1F)N1CCN(Cc2cccc(Nc3nccs3)n2)CC1 (2.5 µM)
inactive: [1] 0 | [2] 0 | [3] 0 | [4] 0 | [5] 0 | [6] 0 | [7] 0 | [8] 0 | [9] 0 | [10] 0

N[C@@H]1CCCN(c2c(/C=C3\SC(=O)NC3=O)cccc2-c2ccccc2)C1 (10 µM)
inactive: [1] 0 | [2] 0 | [3] 0 | [4] 0 | [5] 0 | [6] 0 | [7] 0 | [8] 0 | [9] 0 | [10] 0

O=c1cc(-c2ccccc2)oc2cc(O[C@@H]3O[C@H](CO[C@@H]4O[C@H](CO)[C@@H](O)[C@H](O)[C@H]4O)[C@@H](O)[C@H](O)[C@H]3O)c(O)c(O)c12 [Oroxin B] (10 µM)
inactive: [1] 0 | [2] 0 | [3] 0 | [4] 0 | [5] 0 | [6] 0 | [7] 0 | [8] 0 | [9] 0 | [10] 0

O=C(Nc1cccc(-c2nc(-c3ccc(NC(=O)c4cccnc4)cc3Cl)no2)c1)Nc1ccc(NC(=O)C2CC2)c(C(F)(F)F)c1 (2.5 µM)
inactive: [1] 0 | [2] 0 | [3] 0 | [4] 0 | [5] 0 | [6] 0 | [7] 0 | [8] 0 | [9] 0 | [10] 0

Cc1ccc(C)c(OCCn2cc(C(=O)O)c3ccccc32)c1 (10 µM)
inactive: [1] 0 | [2] 0 | [3] 0 | [4] 0 | [5] 0 | [6] 0 | [7] 0 | [8] 0 | [9] 0 | [10] 0

CC(C)n1c([C@H](C)Nc2ncnc(N)c2C#N)cc2cccc(-c3ccc(=O)n(C)c3)c2c1=O (10 µM)
inactive: [1] 0 | [2] 0 | [3] 0 | [4] 0 | [5] 0 | [6] 0 | [7] 0 | [8] 0 | [9] 0 | [10] 0

COc1cc(-c2oc3cc(O)cc(O)c3c(=O)c2O)ccc1O [Isorhamnetin] (10 µM)
inactive: [1] 0 | [2] 0 | [3] 0 | [4] 0 | [5] 0 | [6] 0 | [7] 0 | [8] 0 | [9] 0 | [10] 0

O=C1Nc2ccc(CN3C(=O)CSC3=O)cc2/C1=C/c1cc(CN2CCOCC2)c[nH]1 (10 µM)
inactive: [1] 0 | [2] 0 | [3] 0 | [4] 0 | [5] 0 | [6] 0 | [7] 0 | [8] 0 | [9] 0 | [10] 0

O=C1Nc2ccc(I)cc2/C1=C/c1cc(Br)c(O)c(Br)c1 (10 µM)
active: [7] 1
inactive: [1] 0 | [2] 0 | [3] 0 | [4] 0 | [5] 0 | [6] 0 | [8] 0 | [9] 0 | [10] 0

O=C(NCCN1CCOCC1)Nc1nc2ccc(Sc3nnc4ccc(-c5ccc(F)cc5)nn34)cc2s1 (10 µM)
inactive: [1] 0 | [2] 0 | [3] 0 | [4] 0 | [5] 0 | [6] 0 | [7] 0 | [8] 0 | [9] 0 | [10] 0

By substructure, the compounds so far with a cyano group (2)
N#Cc1ccc(-c2cnc3ccc(-c4ccc(C(=O)N5CCOCC5)cc4)cn23)cc1 (10 µM)
inactive: [1] 0 | [2] 0 | [3] 0 | [4] 0 | [5] 0 | [6] 0 | [7] 0 | [8] 0 | [9] 0 | [10] 0

CC(C)n1c([C@H](C)Nc2ncnc(N)c2C#N)cc2cccc(-c3ccc(=O)n(C)c3)c2c1=O (10 µM)
inactive: [1] 0 | [2] 0 | [3] 0 | [4] 0 | [5] 0 | [6] 0 | [7] 0 | [8] 0 | [9] 0 | [10] 0

(further entries)

Cn1ncc(NC(=O)c2nc(-c3c(F)cccc3F)sc2N)c1N1CC[C@@H](N)[C@H](F)CC1 (10 µM)
inactive: [1] 0 | [2] 0 | [3] 0 | [4] 0 | [5] 0 | [6] 0 | [7] 0 | [8] 0 | [9] 0 | [10] 0

Brc1ccc(CSc2nc3ccccc3o2)cc1 [BMP signaling agonist sb4] (10 µM)
inactive: [1] 0 | [2] 0 | [3] 0 | [4] 0 | [5] 0 | [6] 0 | [7] 0 | [8] 0 | [9] 0 | [10] 0

C=CC(=O)N1CCN(C(=O)CNc2cc(I)c(Cl)cc2O)CC1 [K-Ras(G12C) inhibitor 12] (10 µM)
inactive: [1] 0 | [2] 0 | [3] 0 | [4] 0 | [5] 0 | [6] 0 | [7] 0 | [8] 0 | [9] 0 | [10] 0

CN1CCN(c2ccc(Nc3ncc4cc(C#N)c(=O)n(C5CCCC5)c4n3)cc2)CC1 (10 µM)
inactive: [1] 0 | [2] 0 | [3] 0 | [4] 0 | [5] 0 | [6] 0 | [7] 0 | [8] 0 | [9] 0 | [10] 0

Cc1ccc(NC(=O)Nc2cc(C(F)(F)F)ccc2F)cc1Nc1ccc2c(c1)NC(=O)/C2=C\c1ccc[nH]1 (2.5 µM)
inactive: [1] 0 | [2] 0 | [3] 0 | [4] 0 | [5] 0 | [6] 0 | [7] 0 | [8] 0 | [9] 0 | [10] 0
